# From the supplement of paper PMC10338343
# ± gives the standard deviation. Only a part is listed here, and it is no random draw. Many entries were measured with a wide error.
# Test system: MIWI (PIWIL1) piRISC loaded with L1MC piRNA (30 nt)
# Experiment: pre-steady-state target cleavage rate (min^-1); MIWI and MILI are mouse PIWI proteins and EfPiwi is from a freshwater sponge; tags in brackets are library labels; higher = faster piRNA-guided slicing of the target
# Conditions: guide: L1MC piRNA 5'p-UAACUAAAUACUAUGCAAGCUGUAGGUCCU; auxiliary factor: 500 nM mouse GTSF1
# Outline: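 In this Cleave-'n-Seq assay, uncleaved targets were sequenced and normalised to depth and to weakly complementary targets. They came from a transcribed, DNA-blocked target RNA library […] mixed with 1 nM active affinity-purified piRISC carrying one synthetic guide, with or without 500 nM GTSF1 partner protein, in HEPES–potassium acetate buffer at 33 °C for 0–8 or 0–960 min. After three trials were pooled and k3 was capped at 0.0001 min^-1, the pre-steady-state cleavage rate was obtained from a burst-and-steady-state fit.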
# 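Also: 1 nM active piRISC with 0.1 nM target library at 33 °C single turnover.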
row,Sequence,pre-steady-state target cleavage rate
1,AGGACCUACAGGAAGCAUAGUAUUUUCAAA,0.132 ± 0.024
2,UGGACCUACAGCUUGGUAAGUAUUUAGAAA,0.000336 ± 0.013
3,UCCAUCUACAGCUUGCAUAGUAUUUAGUUA,0.731 ± 0.031
4,UCGACCUACACCUUGCAUAGUAUUUACUUA,0.254 ± 0.034
5,UGCACCUUCAGCUUGCAUAGUAUUUAGUUA,1.08 ± 0.091
6,UGGACCUACGAGCUUGCAUAGUAUUUAGUUA,0.657 ± 0.11
7,UGGACGUACAGCUUGCAUAGUAUUUUGUUA,0.75 ± 0.055
8,UGGACCUACAGCUUGCUAGUAUUUAGUUA,0.0515 ± 0.013
9,UCGAGCUACACCUUGCAUAGUAUUUAGUUA,1.01 ± 0.046
10,UGGACCUACAGCUUGCAUAGUAUUUAGUUC [g2:g29:cont:t1C],1.14 ± 0.068
11,UCCACCUAGCAGCUUGCAUAGUAUUUAGUUA,0.833 ± 0.057
12,UCCACCAACAGCUUCCAUAGUAUUUAGUUA,0.0426 ± 0.015
13,UGGACCUACAGCUUGCAUAGUAUUAGUUA,0.172 ± 0.032
14,UGGACCUACACCUUGCUUAGUAUUUAGUUA,1.1 ± 0.062
15,UCGACCUACAGGUUGCAUAGUAUUUACAAA,0.183 ± 0.026
16,UGGAUCUACAGCUUGCAUAGUAUUUAGUUA,1.57 ± 0.062

# Same assay, conditions: guide: L1MC piRNA 5'p-UAACUAAAUACUAUGCAAGCUGUAGGUCCU; auxiliary factor: none (no GTSF1)
row,Sequence,pre-steady-state target cleavage rate
1,AGGACCAACAGCUUGCAUUGUAUUUAGUUA,0.0356 ± 0.0086
2,UCGACCUACUGCUUGCAAAGUAUUUAGUUA,0.051 ± 0.01
3,AGGACCUACAGCUUGCUAUAGUAUUUAGUUA,0.00178 ± 0.0043
4,UCGACCUUCAGCUUCCAUAGUAUUUAGUUA,0.00293 ± 0.0014
5,UGCUGCUACAGCUUGCAUAGUAUUUAGUUA,0.0595 ± 0.011
6,UGGACCUACAGCUUGCUAUGUAUUUAGUUA,0.00588 ± 0.001
7,UGGUCCAACAGCUUGCAUAGUAUUUAGUUA,0.0715 ± 0.01
8,UGGACCAACAGCUUGCAAAGUAUUUAGUUA,0.0368 ± 0.0072
9,UCGACCUACACGCUUGCAUAGUAUUUAGUUA,0.0454 ± 0.0074
10,AGGACCUACAGCUUGCUUAGUAUUUAGAAA,0.00737 ± 0.0028
11,UGGACCUGACAGCUUGCAUAGUAUUUAGUUA,0.0824 ± 0.017
12,AGGCCUACAGCUUGCAUAGUAUUUAGUUA,0.107 ± 0.019
13,UCCACGAUCAGCUUGCAUAGUAUUUAGUUA,0.0711 ± 0.013
14,AGGCCCUACAGCUUGCAUAGUAUUUAGUUA,0.115 ± 0.018
15,UGGACCUACAGCUUGGUAAGUAUUUUCAAA,0.000203 ± 0.0089
16,UGGACCUACAGCUUGCAUAGAAUUUUCAAA,0.00132 ± 0.006
17,AGCACCUACACCUUGCAUAGUAUUUAGUUA,0.0408 ± 0.0062
18,UGGACCUACAGCUUGCAUAGUAUUUCAGUUA,0.0318 ± 0.0065
19,UCGACCUACAGGUUGCAUAGUAUUUACUUA,0.025 ± 0.0051
20,UGGACCUACAGCUUCCAUAGUAUUUACUUA,0.000429 ± 0.0071

row,Sequence,pre-steady-state target cleavage rate
1,UGGACCUACAACUUGCAUAGUAUUUAGUUA,0.08 ± 0.013
2,UGGACGUUCAGCUUGCAUAGUAUUUAGUUA,0.0691 ± 0.012
3,AGGACCUACGAGCUUGCAUAGUAUUUAGUUA,0.0555 ± 0.014
4,UGCUCCUACAGCUUGCAUAGUAUUUAGAAA,0.00714 ± 0.0022
5,AGGACCUACAGGAAGCAUAGUAUUUUCAAA,0.000658 ± 0.0095
6,UGGACCUACAGCUUGGUAAGUAUUUAGAAA,0.000511 ± 0.0069
7,UCCAUCUACAGCUUGCAUAGUAUUUAGUUA,0.0538 ± 0.0076
8,UCGACCUACACCUUGCAUAGUAUUUACUUA,0.0244 ± 0.0036
9,UGCACCUUCAGCUUGCAUAGUAUUUAGUUA,0.0562 ± 0.011
10,UGGACCUACGAGCUUGCAUAGUAUUUAGUUA,0.0557 ± 0.013
11,UGGACGUACAGCUUGCAUAGUAUUUUGUUA,0.052 ± 0.009
12,UGGACCUACAGCUUGCUAGUAUUUAGUUA,0.00386 ± 0.0022
13,UCGAGCUACACCUUGCAUAGUAUUUAGUUA,0.0524 ± 0.0089
14,UGGACCUACAGCUUGCAUAGUAUUUAGUUC [g2:g29:cont:t1C],0.0625 ± 0.012
15,UCCACCUAGCAGCUUGCAUAGUAUUUAGUUA,0.0454 ± 0.0087
16,UCCACCAACAGCUUCCAUAGUAUUUAGUUA,0.00399 ± 0.0017
17,UGGACCUACAGCUUGCAUAGUAUUAGUUA,0.00299 ± 0.0019
18,UGGACCUACACCUUGCUUAGUAUUUAGUUA,0.0262 ± 0.0061
19,UCGACCUACAGGUUGCAUAGUAUUUACAAA,0.00187 ± 0.0033
20,UGGAUCUACAGCUUGCAUAGUAUUUAGUUA,0.0958 ± 0.019
